Test results: patent US20050277602A1, “Methods employing agonists of P38 map kinase for the treatment of asthma” (priority 2004, published 2005)
At least one structure is not confirmed: it was looked up by name or label, or the drawing left a doubt.

Legend:
rabbit ASM tissues [1] = test: Constrictor responses to acetylcholine in isolated rabbit ASM tissues (organ bath, isometric tension); type: cell-based; conditions: Der p1-exposed tissues co-pretreated with anisomycin and SP600125 (1 μM); data not shown
Description: (§1) Following general anesthesia with xylazine (10 mg/kg) and ketamine (50 mg/kg), rabbits were sacrificed with an overdose of pentobarbital (125 mg/kg). As described previously (Grunstein et al. (2001) Am J Physiol Lung Cell Mol Physiol 280:L229-L238), the tracheae were removed via open thoracotomy, the loose connective tissue and epithelium were carefully scraped and removed, and the tracheae were divided into ring segments. Each alternate ring was incubated for 24 hours at room temperature in the presence of either vehicle (saline) alone (control), vehicle containing cysteine (5 mM), or varying concentrations of affinity purified Der p1 allergen (0.1, 0.5, 1.0, 5.0 μg/ml) both in the absence and presence of cysteine, as addition of the latter is required to restore the cysteine protease activity of the purified Der p1. […]
(§2) Following incubation, the ASM segments were placed in organ baths containing modified Krebs-Ringer solution aerated with 5% CO2 in oxygen (pH: 7.35-7.40), and the tissues were attached to force transducers from which isometric tension was continuously monitored on a multichannel recorder, as previously described (Hirst et al. (2002) Am J Respir Crit Care Med 165:1161-71). Cholinergic contractility was then assessed in the ASM segments by cumulative administration of acetylcholine (ACh; 10^−10 to 10^−4 M). […]

rabbit ASM tissues [2] = test: Relaxation responses to isoproterenol in isolated rabbit ASM tissues half-maximally contracted with ACh; type: cell-based; conditions: Der p1-exposed tissues co-pretreated with anisomycin and SP600125 (1 μM); data not shown
Description: as §1, §2

Compound: Oc1c2ccccc2c2c3c(cccc13)N=N2 [SP600125]
- effect on the protective effect of anisomycin on Der p1-induced changes in ASM responsiveness (constrictor) (rabbit ASM tissues [1]): not appreciably affected
- effect on the protective effect of anisomycin on Der p1-induced changes in ASM responsiveness (relaxant) (rabbit ASM tissues [2]): not appreciably affected
